# Reference: the supplement of paper PMC12823440, “Inhibitors supercharge kinase turnover through native proteolytic circuits” (Nature, 2025)
# By UniProt entry, the sequences of proteins in these tests, tags left out.
# UniProt P07949, whole entry, looked up: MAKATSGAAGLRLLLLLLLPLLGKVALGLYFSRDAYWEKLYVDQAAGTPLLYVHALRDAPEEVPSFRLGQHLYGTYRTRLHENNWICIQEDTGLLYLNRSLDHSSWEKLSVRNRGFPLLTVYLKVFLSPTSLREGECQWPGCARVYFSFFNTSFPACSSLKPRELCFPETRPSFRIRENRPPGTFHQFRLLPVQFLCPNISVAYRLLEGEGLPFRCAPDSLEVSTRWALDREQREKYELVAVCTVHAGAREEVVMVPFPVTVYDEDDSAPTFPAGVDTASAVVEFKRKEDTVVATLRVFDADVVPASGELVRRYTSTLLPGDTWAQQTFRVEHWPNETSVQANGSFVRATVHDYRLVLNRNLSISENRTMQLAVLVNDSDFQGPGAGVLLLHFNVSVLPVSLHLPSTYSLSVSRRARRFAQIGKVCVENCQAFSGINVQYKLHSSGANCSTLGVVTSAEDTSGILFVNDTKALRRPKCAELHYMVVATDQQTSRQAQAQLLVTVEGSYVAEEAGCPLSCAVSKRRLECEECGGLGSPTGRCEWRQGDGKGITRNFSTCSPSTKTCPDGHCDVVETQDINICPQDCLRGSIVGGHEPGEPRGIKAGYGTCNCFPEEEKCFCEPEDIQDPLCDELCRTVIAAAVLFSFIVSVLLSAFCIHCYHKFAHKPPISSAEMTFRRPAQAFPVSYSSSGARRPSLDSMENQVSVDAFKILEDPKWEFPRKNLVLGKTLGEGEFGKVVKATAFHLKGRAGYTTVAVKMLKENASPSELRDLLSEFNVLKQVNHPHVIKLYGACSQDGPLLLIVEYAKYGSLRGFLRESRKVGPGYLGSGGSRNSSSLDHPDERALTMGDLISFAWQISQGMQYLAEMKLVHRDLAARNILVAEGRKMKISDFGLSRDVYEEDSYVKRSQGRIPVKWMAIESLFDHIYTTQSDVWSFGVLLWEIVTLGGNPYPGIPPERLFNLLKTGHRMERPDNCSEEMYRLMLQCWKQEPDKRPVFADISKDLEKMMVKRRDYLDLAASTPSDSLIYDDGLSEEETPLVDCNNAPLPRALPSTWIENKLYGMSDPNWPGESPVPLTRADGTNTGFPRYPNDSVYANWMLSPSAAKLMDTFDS
# Counter-ions that a name gives are not always drawn. Some of the results follow. Hit calls seldom repeat between salt and free forms of one compound.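 Kinases were expressed as nanoluciferase fusions in K562 cells and luminescence was read every 4 h between 2 and 18 h as percent of control, DMSO set to 100% and a positive control to 0%. A time point counts as decreased when the signal drops significantly (2 sigma). The hit call is the authors' own, does not follow from the count of time points alone, and its rule is not shown.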
# Biological target: RET (UniProt P07949)
# Experiment: number of time points (of 5) at which kinase-Nluc abundance scored as decreased, DMSO-normalised (count); higher = more persistent destabilization
# Details: K562; 2-18 h
row,SMILES,number of time points
1,C[C@@H]1COCCN1c1nc(-c2cnc(N)cc2C(F)F)nc(N2[C@H](C)COC[C@@H]2C)n1 (2.5 µM),0
2,O=C(O)c1cc(=O)c2c(OCC(O)COc3cccc4oc(C(=O)O)cc(=O)c34)cccc2o1 [Cromolyn (sodium)] (10 µM),0
3,CCc1ccc(OCC(=O)Nc2ccc(F)c([N+](=O)[O-])c2)cc1 (10 µM),0
4,CC(C)S(=O)(=O)c1ccc2nccc(Nc3ccc4scnc4c3)c2c1 (10 µM),0
5,CN1CC[C@@H](c2c(O)cc(O)c3c(=O)cc(-c4ccc(C(F)(F)F)cc4Cl)oc23)[C@@H]1CO [Voruciclib (hydrochloride)] (10 µM),0
6,CC(C)=CC(=O)O[C@H]1Cc2cc3ccc(=O)oc3cc2OC1(C)C [Decursin] (10 µM),0
7,CC(C)C[C@@H](C(=O)Nc1ccn(C[C@@H](O)CO)n1)N1CC(Oc2ccccc2Cl)=CC1=O [Dorzagliatin] (10 µM),0
8,CC(C)N1CCN(c2ccc(Nc3ncc4cc5n(c4n3)C3(CCCCC3)CNC5=O)nc2)CC1 [Lerociclib (dihydrochloride)] (2 µM),0
9,CCCCCCCCCCCCCCCCOP(=O)([O-])OCC[N+](C)(C)C [Miltefosine] (10 µM),0
10,COCCNc1cc(NC(=O)N2CCCc3cc(CN4CCN(C)CC4=O)c(C=O)nc32)ncc1C#N [Roblitinib] (10 µM),0
11,Cc1ccc(NC(=O)c2ccc(CN(CCN(C)C)C(=O)c3cccnc3)cc2)cc1Nc1nccc(-c2cccnc2)n1 [PDGFRα kinase inhibitor 1] (10 µM),0
12,c1ccc(-c2nc(=NCCN3CCOCC3)sn2-c2ccccc2)cc1 [VP3.15 (dihydrobromide)] (10 µM),0
13,O=C1NC(=Nc2c(Cl)cccc2Cl)S/C1=C\c1ccc2nccnc2c1 (2.5 µM),0
14,Cc1cc(-c2ccnc(Nc3cnn(C)c3)n2)ccc1CNC(=O)N1CC(OC(C)C)C1 (10 µM),0
15,CN(C)S(=O)(=O)c1ccc2c(c1)/C(=C/c1cc3c([nH]1)CCCC3)C(=O)N2 (2.5 µM),0
16,Cc1cnc(NC2CCOCC2)nc1-n1cnc(C(=O)N[C@H](CN)c2cc(F)cc(Cl)c2)c1 (10 µM),0
17,N#CC(c1ccnc(OCc2ccc(CN3CCOCC3)cc2)n1)c1nc2ccccc2s1 (stereo not drawn) [Bentamapimod] (2.5 µM),0
18,Cc1c(-c2ccc(C(N)=O)c3[nH]c4cc(C(C)(C)O)ccc4c23)cccc1-n1cnc2ccccc2c1=O (2.5 µM),0
19,CN(C)c1nc2c(Br)c(Br)c(Br)c(Br)c2[nH]1 (10 µM),0

# Another view of some results above:
row | SMILES | number of time points
1 | C[C@@H]1COCCN1c1nc(-c2cnc(N)cc2C(F)F)nc(N2[C@H](C)COC[C@@H]2C)n1 (2.5 µM) | 0
4 | CC(C)S(=O)(=O)c1ccc2nccc(Nc3ccc4scnc4c3)c2c1 (10 µM) | 0
5 | CN1CC[C@@H](c2c(O)cc(O)c3c(=O)cc(-c4ccc(C(F)(F)F)cc4Cl)oc23)[C@@H]1CO [Voruciclib (hydrochloride)] (10 µM) | 0
6 | CC(C)=CC(=O)O[C@H]1Cc2cc3ccc(=O)oc3cc2OC1(C)C [Decursin] (10 µM) | 0
10 | COCCNc1cc(NC(=O)N2CCCc3cc(CN4CCN(C)CC4=O)c(C=O)nc32)ncc1C#N [Roblitinib] (10 µM) | 0
13 | O=C1NC(=Nc2c(Cl)cccc2Cl)S/C1=C\c1ccc2nccnc2c1 (2.5 µM) | 0
15 | CN(C)S(=O)(=O)c1ccc2c(c1)/C(=C/c1cc3c([nH]1)CCCC3)C(=O)N2 (2.5 µM) | 0
16 | Cc1cnc(NC2CCOCC2)nc1-n1cnc(C(=O)N[C@H](CN)c2cc(F)cc(Cl)c2)c1 (10 µM) | 0
19 | CN(C)c1nc2c(Br)c(Br)c(Br)c(Br)c2[nH]1 (10 µM) | 0

# (continued)

row,SMILES,number of time points
1,Nc1ncnc2c1c(-c1ccc(Oc3ccccc3)cc1)nn2C1CCN(CCOCCOCCOc2ccc3c(c2)CN(C2CCC(=O)NC2=O)C3=O)CC1 (stereo not drawn) (2.5 µM),0
2,O=[N+]([O-])c1ccc(Nc2nc(N3CCOCC3)nc(N3CCOCC3)n2)cc1 (10 µM),0
3,C[C@H](Nc1ncnc2[nH]cnc12)c1cc2ccc(F)cc2nc1-c1ccccn1 (10 µM),0
4,CCc1cccc(CC)c1NC(=O)N1Cc2[nH]nc(NC(=O)c3ccc(N4CCN(C)CC4)cc3)c2C1 (2.5 µM),3
5,CCc1cncnc1N1CCN(Cc2nc3ccc(C(F)(F)F)cc3[nH]2)CC1 (10 µM),0
6,COc1cc(-c2cn[nH]c2)ccc1C(=O)Nc1ccc2c(c1)CCNCC2 (10 µM),0
7,Cn1cc2cc(C(F)(F)c3nnc4ccc(-c5cnn(C6CC6)c5)nn34)c(F)cc2n1 [Bozitinib] (10 µM),0
8,O=Nc1c2[nH]c3ccccc3nc-2c2ccccc12 [IQ-1S (free acid)] (2.5 µM),0
9,CCN(CC)c1cc2oc(=O)c(-c3nc4ccccc4o3)cc2cc1C (2.5 µM),0
10,COc1cc(N2CCOCC2)ccc1NC(=O)c1csc(-c2cccnc2)n1 [IRAK inhibitor 6] (10 µM),0
11,CNc1nc(Nc2cn(C(C)(C)C#N)nc2C)ncc1C(F)(F)F (10 µM),0
12,COc1nn(C)cc1Nc1nccc(-c2c[nH]c3c(NC(=O)[C@@H](C)N4CCN(C)CC4)cccc23)n1 (10 µM),0
13,N#Cc1ccnc(Nc2cc(C3CCN(C4COC4)CC3)cc(N3CCC(F)(F)C3)n2)c1 (2.5 µM),0
14,Cc1cccc2c3c(ccc12)C(=O)C1=C(OCC1C)C3=O (stereo not drawn) [Dihydroisotanshinone I] (2.5 µM),0
15,CNc1nc(Nc2ccc(C(=O)N3CCOCC3)cc2OC)ncc1Cl (2.5 µM),0
16,CCN(CC)c1ccc2cc(-c3nc4cc(C)ccc4o3)c(=O)oc2c1 (10 µM),0
17,COc1ccccc1C(=O)/C=C/c1ccccc1C(=O)O (10 µM),0
18,CC(=O)N1CCC(c2cc(-c3ccc(NC(=O)c4cccn(-c5ccc(F)cc5)c4=O)cc3F)c3c(N)ncnn23)CC1 (0.5 µM),0
19,O[C@@H]1CO[C@H]2[C@@H]1OC[C@H]2Oc1nc2nc(-c3ccc(-c4ccccc4)cc3)c(Cl)cc2[nH]1 (10 µM),0
